Test results from patent publication US20260226095A1.
No constants are given. Whether binding was seen depends on the method and setting. Some binding calls cover weakened binding; strength is not graded here.

The chains behind the UniProt entries cited, without tags or fusion partners.
UniProt Q04609: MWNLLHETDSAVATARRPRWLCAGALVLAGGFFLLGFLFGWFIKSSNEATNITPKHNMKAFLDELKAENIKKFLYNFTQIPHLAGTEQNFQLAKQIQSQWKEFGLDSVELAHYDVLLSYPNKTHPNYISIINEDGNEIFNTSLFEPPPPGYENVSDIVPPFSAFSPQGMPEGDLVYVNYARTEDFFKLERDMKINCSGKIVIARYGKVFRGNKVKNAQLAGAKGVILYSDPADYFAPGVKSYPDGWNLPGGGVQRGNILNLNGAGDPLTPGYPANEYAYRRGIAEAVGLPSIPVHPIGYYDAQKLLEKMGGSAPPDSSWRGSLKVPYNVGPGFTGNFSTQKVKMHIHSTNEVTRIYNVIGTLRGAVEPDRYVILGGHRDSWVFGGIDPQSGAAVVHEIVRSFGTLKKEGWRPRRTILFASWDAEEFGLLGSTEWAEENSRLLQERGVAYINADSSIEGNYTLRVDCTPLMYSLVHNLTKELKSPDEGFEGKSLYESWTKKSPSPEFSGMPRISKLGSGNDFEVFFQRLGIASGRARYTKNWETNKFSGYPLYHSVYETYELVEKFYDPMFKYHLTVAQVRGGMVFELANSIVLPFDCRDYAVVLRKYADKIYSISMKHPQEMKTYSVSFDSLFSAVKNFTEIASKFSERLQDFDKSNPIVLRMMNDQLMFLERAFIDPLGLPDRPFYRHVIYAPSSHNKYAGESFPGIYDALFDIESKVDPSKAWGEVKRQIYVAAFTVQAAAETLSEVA

Tests used:
[1] = target: antigen of scFv Ab1 on PC3-PIP (positive) cells (UniProt Q04609); test: ELISA on fixed PC3-PIP (positive) cells, anti-His tag and HRP anti-mouse IgG
[2] = target: antigen of scFv Ab1 on PC3-PIP (positive) cells (UniProt Q04609); test: flow cytometry on PC3-PIP (positive) cells, scFv at 10 µg/ml, anti-His tag and anti-mouse IgG-Alexa488
[3] = target: antigen of scFv Ab1 on PC3-PIP (positive) cells (UniProt Q04609); test: flow cytometry on PC3-PIP cells, scFv at 10 µg/ml, anti-His detection
[4] = target: antigen of scFv Ab1 on PC3-PIP (positive) cells (UniProt Q04609); test: ELISA on fixed PC3-PIP cells, scFv 2.5 to 0.0025 µg/ml, anti-His detection

Measured: binding

B1: scFv Ab1 RREF (scFv, not shown: small tags and cut ends)
scFv: EVKLQESGPGLVKPSQSLSLTCSVTGYSITSGYYWNWIRQFPGNKLEWMGSISFDGNNNYNPSLRNRISITRDTSKNQFFLKLNSVTTEDTATYYCAREGDYYGSSFFTYWGQGTLVTVSSGGGGSGGGGSGGGGSALDIVMTQSPASLSASVGETVTLTCGASENIYGALNWYQRKQGKSPQLLIYGATNLADGMSSRFSGSGSGRQYSLKISSLHPDDVATYYCQNVFRTYTFGGGTKLEIKRAAAHHHHHH
binds: all assays above
